The supplement of paper PMC10849652
This is one part of the list.

Amino acid sequences for entries named in this document (tags omitted). A change or cut given only in a name is not applied to a line headed by its entry.
UniProt Q5JS54: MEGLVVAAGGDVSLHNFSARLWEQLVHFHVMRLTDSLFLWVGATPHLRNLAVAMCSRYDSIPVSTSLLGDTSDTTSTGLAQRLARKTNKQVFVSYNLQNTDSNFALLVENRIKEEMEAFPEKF
UniProt Q8N0Z8: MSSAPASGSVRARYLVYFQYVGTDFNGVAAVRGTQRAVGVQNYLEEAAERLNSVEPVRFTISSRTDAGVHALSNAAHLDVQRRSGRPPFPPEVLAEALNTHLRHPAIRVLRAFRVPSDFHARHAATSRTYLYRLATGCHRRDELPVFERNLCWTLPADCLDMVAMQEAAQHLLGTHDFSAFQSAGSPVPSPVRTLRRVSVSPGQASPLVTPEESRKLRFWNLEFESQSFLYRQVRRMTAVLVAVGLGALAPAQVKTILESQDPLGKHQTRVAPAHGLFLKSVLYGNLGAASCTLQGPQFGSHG
UniProt P23219, whole entry, looked up: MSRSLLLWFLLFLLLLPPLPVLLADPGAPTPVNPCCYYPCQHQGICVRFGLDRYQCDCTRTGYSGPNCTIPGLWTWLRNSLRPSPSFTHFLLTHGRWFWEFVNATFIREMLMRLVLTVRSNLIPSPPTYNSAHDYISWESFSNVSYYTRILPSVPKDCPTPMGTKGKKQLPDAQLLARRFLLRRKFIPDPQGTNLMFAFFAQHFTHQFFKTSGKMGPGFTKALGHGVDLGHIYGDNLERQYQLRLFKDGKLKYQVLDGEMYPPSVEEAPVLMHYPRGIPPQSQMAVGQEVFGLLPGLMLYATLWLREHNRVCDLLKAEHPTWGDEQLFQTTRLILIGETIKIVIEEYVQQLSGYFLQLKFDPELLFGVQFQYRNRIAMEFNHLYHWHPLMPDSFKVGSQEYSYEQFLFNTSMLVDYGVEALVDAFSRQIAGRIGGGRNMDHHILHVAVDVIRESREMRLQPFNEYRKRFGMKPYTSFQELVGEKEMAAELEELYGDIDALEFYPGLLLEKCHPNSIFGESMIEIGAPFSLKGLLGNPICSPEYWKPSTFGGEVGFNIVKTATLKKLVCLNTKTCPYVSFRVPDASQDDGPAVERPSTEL
UniProt P61289: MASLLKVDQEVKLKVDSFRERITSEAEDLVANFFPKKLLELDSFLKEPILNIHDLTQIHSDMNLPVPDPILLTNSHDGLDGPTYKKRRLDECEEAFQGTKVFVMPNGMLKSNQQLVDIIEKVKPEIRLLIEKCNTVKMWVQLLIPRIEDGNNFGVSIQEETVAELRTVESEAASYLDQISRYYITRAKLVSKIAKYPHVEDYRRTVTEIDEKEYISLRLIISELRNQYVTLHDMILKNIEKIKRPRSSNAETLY
UniProt Q13308: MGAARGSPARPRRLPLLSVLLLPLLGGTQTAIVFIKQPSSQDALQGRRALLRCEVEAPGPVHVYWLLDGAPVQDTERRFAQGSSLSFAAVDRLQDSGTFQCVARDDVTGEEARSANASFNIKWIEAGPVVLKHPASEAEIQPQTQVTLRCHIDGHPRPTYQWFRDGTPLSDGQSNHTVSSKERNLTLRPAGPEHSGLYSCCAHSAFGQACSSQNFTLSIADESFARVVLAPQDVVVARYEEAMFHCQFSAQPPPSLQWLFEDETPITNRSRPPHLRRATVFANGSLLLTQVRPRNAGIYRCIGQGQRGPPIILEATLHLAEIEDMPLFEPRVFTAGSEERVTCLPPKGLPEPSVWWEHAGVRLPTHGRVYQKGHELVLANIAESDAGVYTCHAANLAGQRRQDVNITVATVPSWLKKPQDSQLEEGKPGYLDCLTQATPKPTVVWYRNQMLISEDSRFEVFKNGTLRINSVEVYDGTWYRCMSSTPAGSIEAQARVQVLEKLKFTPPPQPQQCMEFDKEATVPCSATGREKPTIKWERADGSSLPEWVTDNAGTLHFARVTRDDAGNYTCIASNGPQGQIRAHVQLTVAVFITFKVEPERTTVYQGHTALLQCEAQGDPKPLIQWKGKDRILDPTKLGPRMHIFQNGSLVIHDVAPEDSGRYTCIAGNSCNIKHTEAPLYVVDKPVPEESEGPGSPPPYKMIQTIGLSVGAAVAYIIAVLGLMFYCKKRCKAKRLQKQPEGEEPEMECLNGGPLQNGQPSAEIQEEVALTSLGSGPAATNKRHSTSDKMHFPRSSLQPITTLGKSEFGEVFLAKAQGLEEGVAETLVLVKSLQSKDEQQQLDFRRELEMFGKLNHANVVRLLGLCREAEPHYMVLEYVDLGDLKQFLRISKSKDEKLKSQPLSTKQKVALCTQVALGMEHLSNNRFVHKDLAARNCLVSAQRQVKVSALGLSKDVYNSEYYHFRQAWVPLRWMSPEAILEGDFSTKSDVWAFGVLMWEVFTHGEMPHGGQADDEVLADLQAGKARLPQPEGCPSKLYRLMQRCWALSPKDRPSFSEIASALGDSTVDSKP
UniProt P35236: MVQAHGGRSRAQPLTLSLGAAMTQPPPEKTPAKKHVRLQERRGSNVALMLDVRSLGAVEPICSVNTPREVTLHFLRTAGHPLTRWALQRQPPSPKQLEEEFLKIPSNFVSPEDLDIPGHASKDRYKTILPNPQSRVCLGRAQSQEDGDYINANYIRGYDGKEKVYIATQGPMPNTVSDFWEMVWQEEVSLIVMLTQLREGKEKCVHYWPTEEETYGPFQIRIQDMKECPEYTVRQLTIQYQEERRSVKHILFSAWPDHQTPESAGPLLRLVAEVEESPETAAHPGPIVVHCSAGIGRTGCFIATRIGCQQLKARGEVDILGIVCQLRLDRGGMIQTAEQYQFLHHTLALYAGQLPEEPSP
UniProt Q5JSZ5: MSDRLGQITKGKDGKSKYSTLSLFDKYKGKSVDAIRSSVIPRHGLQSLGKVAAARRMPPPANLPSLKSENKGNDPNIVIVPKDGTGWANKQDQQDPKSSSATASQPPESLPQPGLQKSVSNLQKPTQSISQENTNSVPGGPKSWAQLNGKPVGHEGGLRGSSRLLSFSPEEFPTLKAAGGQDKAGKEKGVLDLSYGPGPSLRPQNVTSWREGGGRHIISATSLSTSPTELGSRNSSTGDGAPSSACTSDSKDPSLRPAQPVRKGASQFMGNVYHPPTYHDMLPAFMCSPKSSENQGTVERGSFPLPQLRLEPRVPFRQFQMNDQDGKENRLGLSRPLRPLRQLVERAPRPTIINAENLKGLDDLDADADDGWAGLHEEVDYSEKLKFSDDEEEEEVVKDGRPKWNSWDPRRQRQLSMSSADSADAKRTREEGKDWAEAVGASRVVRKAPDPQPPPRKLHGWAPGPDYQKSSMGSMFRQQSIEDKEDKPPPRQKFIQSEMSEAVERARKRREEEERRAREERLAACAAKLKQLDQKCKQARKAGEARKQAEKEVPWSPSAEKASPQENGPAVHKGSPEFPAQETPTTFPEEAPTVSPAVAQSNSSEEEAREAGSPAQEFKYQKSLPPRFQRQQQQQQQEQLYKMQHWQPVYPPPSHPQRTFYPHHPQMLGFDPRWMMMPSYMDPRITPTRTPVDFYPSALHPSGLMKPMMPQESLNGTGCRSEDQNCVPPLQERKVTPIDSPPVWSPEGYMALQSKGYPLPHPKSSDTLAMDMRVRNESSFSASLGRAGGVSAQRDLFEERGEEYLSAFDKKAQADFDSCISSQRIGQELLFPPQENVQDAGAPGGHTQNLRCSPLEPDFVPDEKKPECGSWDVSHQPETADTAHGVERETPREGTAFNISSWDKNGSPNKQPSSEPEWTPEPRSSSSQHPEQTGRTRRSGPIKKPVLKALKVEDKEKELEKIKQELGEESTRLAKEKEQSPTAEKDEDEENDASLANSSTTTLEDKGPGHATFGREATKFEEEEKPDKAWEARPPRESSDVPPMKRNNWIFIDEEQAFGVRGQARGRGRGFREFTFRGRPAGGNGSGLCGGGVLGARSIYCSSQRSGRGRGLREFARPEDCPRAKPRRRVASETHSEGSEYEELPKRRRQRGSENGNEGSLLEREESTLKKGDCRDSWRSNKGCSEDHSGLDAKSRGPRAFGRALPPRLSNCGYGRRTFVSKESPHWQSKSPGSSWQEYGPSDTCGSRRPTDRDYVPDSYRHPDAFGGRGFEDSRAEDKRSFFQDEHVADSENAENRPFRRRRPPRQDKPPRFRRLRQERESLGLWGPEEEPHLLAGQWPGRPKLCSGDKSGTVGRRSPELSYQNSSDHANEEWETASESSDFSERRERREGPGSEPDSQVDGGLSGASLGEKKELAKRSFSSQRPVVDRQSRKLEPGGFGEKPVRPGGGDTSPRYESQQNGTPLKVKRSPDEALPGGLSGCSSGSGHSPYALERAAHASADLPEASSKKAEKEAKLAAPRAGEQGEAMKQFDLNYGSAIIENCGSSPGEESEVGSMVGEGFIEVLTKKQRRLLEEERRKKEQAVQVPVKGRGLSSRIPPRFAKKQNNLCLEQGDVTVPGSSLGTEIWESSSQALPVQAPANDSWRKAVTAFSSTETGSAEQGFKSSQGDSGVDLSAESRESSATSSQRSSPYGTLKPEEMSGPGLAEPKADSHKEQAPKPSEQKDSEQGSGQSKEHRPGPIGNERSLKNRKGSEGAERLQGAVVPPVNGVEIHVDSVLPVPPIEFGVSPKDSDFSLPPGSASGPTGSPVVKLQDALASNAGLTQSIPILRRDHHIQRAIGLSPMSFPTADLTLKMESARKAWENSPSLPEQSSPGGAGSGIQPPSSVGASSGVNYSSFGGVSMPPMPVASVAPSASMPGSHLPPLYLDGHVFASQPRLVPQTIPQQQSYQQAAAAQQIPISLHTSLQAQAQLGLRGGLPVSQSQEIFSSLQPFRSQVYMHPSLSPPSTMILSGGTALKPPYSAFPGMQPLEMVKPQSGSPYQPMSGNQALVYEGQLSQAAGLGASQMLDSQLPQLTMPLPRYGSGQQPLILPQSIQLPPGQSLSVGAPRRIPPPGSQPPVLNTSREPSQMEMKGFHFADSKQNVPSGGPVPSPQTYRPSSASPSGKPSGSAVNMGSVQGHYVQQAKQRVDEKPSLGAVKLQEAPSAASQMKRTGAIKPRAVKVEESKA
UniProt Q6GMV3: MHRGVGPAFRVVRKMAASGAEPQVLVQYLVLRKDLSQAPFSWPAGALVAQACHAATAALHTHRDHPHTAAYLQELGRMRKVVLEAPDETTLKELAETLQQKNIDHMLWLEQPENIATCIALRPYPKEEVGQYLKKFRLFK
UniProt O00231, whole entry, looked up: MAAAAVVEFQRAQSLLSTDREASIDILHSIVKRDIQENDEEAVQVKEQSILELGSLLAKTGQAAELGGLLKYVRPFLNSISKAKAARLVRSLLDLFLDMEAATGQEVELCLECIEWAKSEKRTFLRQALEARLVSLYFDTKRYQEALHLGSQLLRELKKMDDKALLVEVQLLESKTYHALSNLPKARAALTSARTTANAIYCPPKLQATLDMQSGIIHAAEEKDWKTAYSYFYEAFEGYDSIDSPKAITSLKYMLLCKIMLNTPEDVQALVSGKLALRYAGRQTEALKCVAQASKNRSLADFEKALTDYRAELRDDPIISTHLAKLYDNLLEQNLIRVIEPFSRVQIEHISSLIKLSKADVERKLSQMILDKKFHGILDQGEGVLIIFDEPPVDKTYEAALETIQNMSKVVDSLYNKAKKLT
UniProt P25788: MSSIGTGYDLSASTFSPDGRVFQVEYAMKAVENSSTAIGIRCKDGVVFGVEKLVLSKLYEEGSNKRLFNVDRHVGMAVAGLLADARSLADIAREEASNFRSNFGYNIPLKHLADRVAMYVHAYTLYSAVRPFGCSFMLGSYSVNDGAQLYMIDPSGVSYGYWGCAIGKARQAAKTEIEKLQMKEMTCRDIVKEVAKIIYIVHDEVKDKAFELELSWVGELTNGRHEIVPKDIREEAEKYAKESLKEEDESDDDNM
UniProt O75475: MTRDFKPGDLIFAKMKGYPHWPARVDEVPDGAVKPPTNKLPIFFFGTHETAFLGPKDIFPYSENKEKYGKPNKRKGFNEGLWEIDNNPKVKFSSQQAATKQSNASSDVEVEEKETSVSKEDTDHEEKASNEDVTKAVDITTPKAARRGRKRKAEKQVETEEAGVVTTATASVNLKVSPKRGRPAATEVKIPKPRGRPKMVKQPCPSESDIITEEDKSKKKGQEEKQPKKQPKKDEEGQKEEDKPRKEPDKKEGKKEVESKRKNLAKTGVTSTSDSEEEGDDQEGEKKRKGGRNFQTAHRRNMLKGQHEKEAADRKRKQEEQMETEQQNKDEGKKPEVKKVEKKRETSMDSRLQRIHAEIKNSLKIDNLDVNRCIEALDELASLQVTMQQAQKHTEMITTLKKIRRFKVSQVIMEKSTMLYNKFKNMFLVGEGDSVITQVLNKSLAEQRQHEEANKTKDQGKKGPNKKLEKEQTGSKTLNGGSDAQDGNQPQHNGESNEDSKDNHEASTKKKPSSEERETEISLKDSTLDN
UniProt Q93096: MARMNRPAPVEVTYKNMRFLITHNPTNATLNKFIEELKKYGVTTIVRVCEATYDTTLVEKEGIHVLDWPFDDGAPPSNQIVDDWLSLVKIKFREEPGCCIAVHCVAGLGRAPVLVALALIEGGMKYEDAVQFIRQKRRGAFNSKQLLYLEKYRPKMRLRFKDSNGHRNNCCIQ

Each target was assayed with NCC(=O)Nc1ccc(-n2nc(C(F)(F)F)cc2-c2ccc3c(ccc4ccccc43)c2)cc1 (assay: log2 fold change, soluble protein after heating vs DMSO (PISA); higher = thermal stabilisation; K562 lysate, 10 uM; active = over 0.2 and 3.5 SD of the protein, either way, in both replicates (recomputed)).
In short: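 Log-two fold change in thermal stability relative to solvent controls is reported from duplicates. For each sample, crude K562 extract from dounce-homogenised pellets in PBS pH 7.4 with 1 mM MgCl2, at 1 mg/mL protein, was treated with 10 μM compound for 30 min. Aliquots heated for 3 min across 48°C-58°C were pooled, brought to 0.5% NP-40 at 4°C and cleared at 21,000xg for 90 min. The supernatant was quantified by TMTpro 16plex LC-MS/MS with channel sums equalised.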

Row | Target | log2 fold change
1 | PSMG4 isoform 2 (UniProt Q5JS54) | inactive: -0.039
2 | PSMA4 (UniProt P25789) | inactive: 0.014
3 | PTTG1 (UniProt O95997) | inactive: 0.06
4 | PSMD7 (UniProt P51665) | inactive: 0.003
5 | PUSL1 (UniProt Q8N0Z8) | inactive: 0.064
6 | PTGS1 isoform 6 (UniProt P23219) | inactive: -0.013
7 | PRR14L (UniProt Q5THK1) | inactive: 0.027
8 | PSME3 isoform 2 (UniProt P61289) | inactive: -0.011
9 | PSMD13 (UniProt Q9UNM6) | inactive: -0.046
10 | PTK7 isoform 6 (UniProt Q13308) | inactive: 0.125
11 | PTPN7 isoform 3 (UniProt P35236) | inactive: 0.031
12 | PRRC2B (UniProt Q5JSZ5) | inactive: -0.13
13 | PTRHD1 (UniProt Q6GMV3) | inactive: 0.042
14 | PSMB9 (UniProt P28065) | inactive: 0.07
15 | PTCD3 (UniProt Q96EY7) | inactive: 0.026
16 | PSMD6 isoform 4 (UniProt Q15008) | inactive: 0.001
17 | PSMD11 (UniProt O00231) | inactive: 0.015
18 | PSMA3 (UniProt P25788) | inactive: -0.039
19 | PSIP1 (UniProt O75475) | inactive: 0.046
20 | PSMD5 (UniProt Q16401) | inactive: 0.012
21 | PTP4A1 (UniProt Q93096) | inactive: 0.019
22 | PSAT1 (UniProt Q9Y617) | inactive: 0

A different layout for some results above.
Row,Target,log2 fold change
14,PSMB9 (UniProt P28065),inactive: 0.07
15,PTCD3 (UniProt Q96EY7),inactive: 0.026
16,PSMD6 isoform 4 (UniProt Q15008),inactive: 0.001
17,PSMD11 (UniProt O00231),inactive: 0.015
